Mtb growth Cornell: 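Whole-cell assay for inhibitors of Mycobacterium tuberculosis growth, labelled Cornell in the record; the read-out is not stated. The concentration is filed as 10 mM, unlikely as a test dose, so the dose is not known. The record gives no direction; compounds strong in two other growth screens of this library score well above the rest, so higher reads as stronger inhibition. Size under these conditions: about 53,000 compounds, about 900 of them at 50% or above in at least one test.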
Mtb heat-shock: 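Assay on Mycobacterium tuberculosis, filed only as a heat shock assay from Cornell; the read-out is not stated. The concentration is filed as 10 mM, unlikely as a test dose, so the dose is not known. Direction is inferred from retests: higher values go with stronger inhibition. Size under these conditions: about 69,000 compounds, about 930 of them at 50% or above in at least one test.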

The filed quantity is “Percent Effect” (%). The record does not define 0% and 100%; most values in the screen are far below 50% and negative numbers occur (in some assays of this library far below -100). This is an unselected part of the compounds tested. A dash means the value is not listed here; it may have been measured.

| # | compound | Mtb growth Cornell | Mtb heat-shock |
|---|---|---|---|
| 1 | `CC(C)c1cc(NC(CO)CO)n2nccc2n1` | - | 23.21% |
| 2 | `Fc1cccc(-c2nc(CN3CCn4c(nnc4C4CC4)C3)co2)c1` | - | -7.769% |
| 3 | `Cc1nc(C2CCCCN2C(=O)c2ccccc2)ncc1C(=O)N(C)C` (stereo not shown) | - | 10.23% |
| 4 | `COc1c(C(=O)N2CCNC(=O)C2)cnc2c1c(C)nn2C` | -14.58% | -15.93% |
| 5 | `NC(=O)NCC1CCCCN1C(=O)c1cc(F)cc(F)c1` (stereo not shown) | -10.15% | -8.992% |
| 6 | `Cc1cc(C)n(C2CN(c3ncnc4c3CCC4)C2)n1` | 49.88% | 5.48% |
| 7 | `CC(=O)c1ccc(OCC(=O)NS(=O)(=O)c2ccc(Cl)s2)cc1` | 12.51% | -7.471% |
| 8 | `COCC1CN(C(=O)N2CCCC2)Cc2cnn(CC3CCCC3)c21` (stereo not shown) | 23.84% | -8.871% |
| 9 | `CC(C)NC(=O)c1nc2c(s1)CCCN2C(C)C` | 16.28% | -6.098% |
| 10 | `CCOc1ccc(C(=O)n2cccn2)cc1` | 26.04% | -9.046% |
| 11 | `CN(C)C(CNC(=O)c1ccnc(-n2cncn2)c1)c1ccccc1` (stereo not shown) | -19.66% | -1.63% |
| 12 | `Cc1nc(-c2ccccc2)sc1C(=O)N(C1CC1)C1CC(=O)NC1=O` (stereo not shown) | 18.66% | -6.926% |
| 13 | `CCCN(CC1CC1)C(=O)Cn1ccccc1=O` | 23.77% | 4.547% |
| 14 | `Cc1occc1C(=O)N1CCc2ncnc(C3CCOC3)c2CC1` (stereo not shown) | -31.83% | 0.1229% |
| 15 | `CCC(CC)C(=O)NCCC(=O)N1CCN(c2ccccn2)CC1` | 29.13% | 4.623% |
| 16 | `Cn1cc(-c2nc(C(=O)N3CCCC3Cn3cccn3)cs2)cn1` (stereo not shown) | -5.415% | -26.26% |
| 17 | `Cc1nc(N2CCC(C)CC2)ncc1-c1cc(O)nc(N2CCCC2)n1` | - | 9.238% |
| 18 | `Cc1ncccc1NC(=O)c1nc2c(n1C)CCN(C(=O)C1CC1)C2` | -1.806% | 20.44% |
| 19 | `CCCNC(=O)C1(CC2CC(c3ccccc3OC)=NO2)CCOCC1` (stereo not shown) | -13.28% | -6.904% |
| 20 | `CC(Oc1ccc2c(c1)OCO2)C(=O)N1CCC(c2ncc[nH]2)CC1` (stereo not shown) | -2.052% | -6.483% |
| 21 | `O=C(O)C(F)(F)F.[H][C@@]12CCN(C3CCC3)[C@]1([H])CC[C@H](C(=O)NCc1cccs1)O2` | -5.103% | -18.28% |
| 22 | `CS(=O)(=O)c1cccc(C(=O)NCC2Cc3ccccc3O2)c1` (stereo not shown) | 18.23% | -3.897% |
| 23 | `Cc1cc(C)c(C(=O)N(C)CCN(C)C(=O)OC(C)(C)C)[nH]1` | 68.36% | -34.04% |
| 24 | `[H][C@]12CC[C@]([H])(CN(Cc3cccnc3)C1)N(C(=O)CCc1cnn(C)c1)C2` | -41.53% | -22.46% |
| 25 | `COc1ccc(N2CCN(C(=O)C3CN(C)C(=O)N3)CC2(C)C)cc1` (stereo not shown) | 2.102% | -17.56% |
| 26 | `N#Cc1cccc(S(=O)(=O)NC(=O)C2CC(c3ccccc3)=NO2)c1` (stereo not shown) | 40.76% | -23.97% |
| 27 | `COc1cccc(F)c1C(C)NC(=O)NCc1cnc(C)s1` (stereo not shown) | - | -1.434% |
| 28 | `[H][C@@]12CS(=O)(=O)C[C@]1([H])N(S(=O)(=O)c1ccccc1OC)CCN2C` | - | -0.8557% |
| 29 | `N#CCCN(Cc1ccco1)C(=O)C1CCCc2ccccc21` (stereo not shown) | - | -32.35% |
| 30 | `CC(C)CC1SCC(=O)Nc2c1cnn2C1CCCC1` (stereo not shown) | 20.53% | 17.13% |
| 31 | `O=C(O)C(F)(F)F.O=C(O)C(F)(F)F.c1cc(CN2Cc3nccn3CC(Cn3cncn3)C2)ccn1` (stereo not shown) | 9.886% | -24.87% |
| 32 | `CC(C)Nc1nc(N2CCOCC2)nc2c1CN(CC(=O)N(C)C)CC2` | - | -8.053% |
| 33 | `O=C(NCC1(O)CCOc2ccccc21)Nc1ccc2c(c1)OCO2` (stereo not shown) | -40.57% | 2.242% |
| 34 | `CC(C)Cc1noc(CN2CCCN(C(=O)c3cccc(Cl)c3)CC2)n1` | 15.74% | -24.67% |
| 35 | `O=C(O)C(F)(F)F.O=c1ccc2c(n1CC1CC1)CCC(NCc1cccs1)C2` (stereo not shown) | -5.456% | 30.82% |
| 36 | `COCCN1C2(CCN(CC3CC3)C2)c2ccccc2S1(=O)=O.O=C(O)C(F)(F)F` (stereo not shown) | 11.92% | 3.018% |
| 37 | `CC(=O)N1CCCC2(CCN(Cc3ccc(Cl)c(C(F)(F)F)c3)C2)C1` (stereo not shown) | -19.51% | 11.03% |
| 38 | `O=c1cc(CN2CCCC2)nc2n1CCCN(Cc1ccco1)C2` | -37.74% | 9.146% |
| 39 | `Cn1ccc(C(=O)N2CCCC(c3cc4cccnc4c(O)n3)C2)n1` (stereo not shown) | -16.1% | -25.24% |
| 40 | `O=C(NCc1nncn1C1CC1)C1(c2cccc(F)c2)CCOCC1` | 5.009% | -12.03% |
| 41 | `COc1ccc(-c2csc3c2c(N)nc(=O)n3CCCN(C)C)cc1` | 18.18% | 30.15% |
| 42 | `O=C(O)C(F)(F)F.O=C(c1ccco1)N1CCc2ncnc(Oc3cccnc3)c2CC1` | 16.45% | 4.052% |
| 43 | `Cc1nc(CN2CCCN(Cc3nc4c(F)cccc4[nH]3)CC2)no1` | -62.54% | 3.41% |
| 44 | `O=S(=O)(CCN1CCCC1Cn1cccn1)c1ccccc1` (stereo not shown) | 8.507% | 15.63% |
| 45 | `CCC(O)CN1CCN(C(=O)c2ccc(Cn3cccc3)cc2)CC1` (stereo not shown) | -35.22% | -6.218% |
| 46 | `COc1cc(C2SCC(=O)Nc3ccsc32)cc(OC)c1OC` (stereo not shown) | -19.99% | -1.907% |
| 47 | `COc1cc2cc(C(=O)NCC(=O)O)n(C)c2c(OC)c1OC` | - | -3.443% |
| 48 | `COc1ccc(-n2c(CO)nc3ccccc32)cc1CO` | 9.173% | -6.511% |
| 49 | `Cl.Cl.c1cc(COC[C@@H]2CCC[C@@]23CNCCO3)ccn1` | -24.2% | -8.457% |
| 50 | `CC(C)c1nc(CNC2CCN(S(C)(=O)=O)CC2)cs1` | - | -45.12% |
| 51 | `[H][C@@]12CCCC[C@]1(O)CCN(C(C)=O)[C@H]2c1ccc2c(c1)OCO2` | 7.324% | 8.23% |
| 52 | `[H][C@@]12CN(CC3CCOCC3)CCO[C@]1([H])CN(Cc1nc(C)cs1)C2` | -35.08% | -0.6235% |
| 53 | `CNC(=O)Cn1nc(C(C)C)c2cnn(C(C)(C)C)c2c1=O` | -7.717% | -12.46% |
| 54 | `COc1ccccc1CNC(=O)CS(=O)(=O)Cc1ccccc1` | 41.24% | -0.5614% |
| 55 | `CC(C)c1noc(C(C)N2CCN(Cc3nnc(C4CC4)o3)CC2)n1` (stereo not shown) | -41.18% | 6.233% |
| 56 | `Cc1nc(NC(=O)N2CCCC(N(C)C)C2)nn1C` (stereo not shown) | -5.43% | -10.83% |
| 57 | `Cn1cc(N2CCCC(SCc3ccco3)C2=O)cn1` (stereo not shown) | 24.76% | -34.85% |

The last 3 entries again:

compound	Mtb growth Cornell	Mtb heat-shock
CC(C)c1noc(C(C)N2CCN(Cc3nnc(C4CC4)o3)CC2)n1 (stereo not shown)	-41.18%	6.233%
Cc1nc(NC(=O)N2CCCC(N(C)C)C2)nn1C (stereo not shown)	-5.43%	-10.83%
Cn1cc(N2CCCC(SCc3ccco3)C2=O)cn1 (stereo not shown)	24.76%	-34.85%

Source: ChEMBL document CHEMBL3988442, “University of Dundee, Small-Polar-MMV Screening Library” (2021).